The record followed here is PubChem BioAssay AID2685 (National Center for Advancing Translational Sciences (NCATS), 2010).

This assay in a line: qHTS Assay for Lipid Storage Modulators in Drosophila S3 Cells.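 For cell number change: cells counted by Cell Tracker Red CMTPX staining in the red channel.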 The following applies: BODIPY lipid droplet fluorescence, 18-24 h; for cell number change: measured here: cell count max response, cells fed with added oleic acid. The method in brief:
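Drosophila S3 cells loaded with oleic acid (400 uM, as added) and compounds at several concentrations; lipid droplets imaged by 488-nm laser-scanning cytometry, 500–530 nm intensity and object ratio to cell channel. Percent activity normalized to 20 uM Triacsin C.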
Background: In qHTS, concentration-response curves come from the screen itself.

Setting [1] is: measured here: cell number channel AC50, cells fed with added oleic acid.
The mark [2] stands for this setting: measured here: lipid fluorescence (Fed channel) AC50, cells fed with added oleic acid.

Some of the results follow. These are further read-outs of the screen, such as a control signal, another cell line or another target. No call is given for them. The list favours compounds with an active or inconclusive main result. Words in brackets tell the shape of the fitted curve; partial curves, single points and poor fits give uncertain potencies.

For the compound `Cc1nc(Cl)sc1C(=O)Nc1cc(F)cc(F)c1`, the cell number change is -16.4%.
For the compound `COc1ccc(CNC(=O)Nc2cccc(Cl)c2)cc1`, the cell number change was 14.5%.
In the case of `Cc1ccc(-c2oc3ccccc3c(=O)c2OCC(=O)O)cc1`, the cell number change was -33.7%. Besides, under setting [1], the AC50 (usually the concentration giving half of the maximal activity seen) is 1.16 µM [falling, full curve, poor fit].
As to `O=C(CSC1=NCCS1)N1CCCCCC1`, the AC50 under setting [2] was 0.0058 µM [falling, full curve, poor fit].
`CC(C)COc1ccc(C(=O)N/C(=C\c2cccc([N+](=O)[O-])c2)C(=O)OC(C)C)cc1`: the cell number change was -10.8%. In addition, the AC50 under setting [2] was 16.4 µM [falling, single point].
For `O=C(CCN=C1NS(=O)(=O)c2ccccc21)OCC(=O)c1ccc(F)c(F)c1`, the cell number change is -36.2%. Further, under setting [1], the AC50 was 23.1 µM [falling, single point].
`CCNc1ccc(Br)cc(C(=O)/C=C/c2ccc(Cl)cc2Cl)c1=O`: the cell number change was -59.5%. For the same compound, the AC50 under setting [1] is 16.4 µM [falling, partial curve]. Besides, the AC50 under setting [2] was 18.4 µM [falling, partial curve].
For `O=C(NC1CCCCC1)NC1CC2CCC(C1)N2C(=O)NC1CCCCC1` (configuration not stated), the AC50 under setting [1] was 0.58 µM [falling, full curve, poor fit].
`CCN(C(=O)CN1C(=O)S/C(=C\c2cccc(Cl)c2)C1=O)C1CCS(=O)(=O)C1` (configuration not stated): the cell number change was -24.3%. Also, the AC50 under setting [2] was 0.146 µM [falling, full curve, poor fit].
Turning to `COCCNc1ccc(N2C(=O)CCCC2=O)cc1[N+](=O)[O-]`, the cell number change was 9.92%. The AC50 under setting [2] was 3.66 µM [rising, single point].
On to `Cn1c(C(=O)OC(C(=O)NC2CCCC2)c2ccncc2)cc2sccc21` (configuration not stated), for which the cell number change was -15.4%. Moreover, under setting [2], the AC50 is 0.731 µM [rising, partial curve].
As for `O=C(COc1ccc2c3c(c(=O)oc2c1)CCC3)Nc1ccccn1`, the cell number change worked out at 0.567%. The AC50 under setting [2] is 1.16 µM [falling, full curve, poor fit].
Regarding `Cc1ccccc1CN1CCNC(=O)C1CC(=O)N(C)CCC1CCOCC1` (configuration not stated), the cell number change is 11.6%. Under setting [1], the AC50 is 6.51 µM [rising, single point].
`CC1CCN(C(=O)CCS(=O)(=O)c2cc3c(cc2Cl)NC(=O)CO3)CC1`: the cell number change is -7.49%.
As to `Cc1ccc(-n2c(-c3cccnc3)n[nH]c2=S)c(C)c1`, the cell number change amounted to 49%. The AC50 under setting [1] was 0.164 µM [rising, full curve, poor fit]. Besides, the AC50 under setting [2] is 0.259 µM [rising, full curve, poor fit].
Take `COc1ccc(C(=O)OCC(=O)NC2CCCCCC2)cc1OC`: the cell number change was -7.89%. The AC50 under setting [2] is 6.51 µM [falling, single point].
In the case of `Cc1csc(Nc2ccccc2)[n+]1-c1ccccc1`, the cell number change is -22.4%. Further, the AC50 under setting [2] is 0.326 µM [falling, full curve].
Take `COc1ccc(CNC(=O)C(=O)c2cn(CC(=O)N3CCOCC3)c3ccccc23)cc1`: the cell number change was 8.55%. In addition, the AC50 under setting [2] was 6.51 µM [rising, single point].
With `O=C(CN1CCc2ccccc2C1)Nc1cc(S(=O)(=O)N2CCOCC2)ccc1N1CCOCC1`, the cell number change was found to be 31.1%. The AC50 under setting [1] was 0.116 µM [rising, full curve, poor fit]. Further, the half-maximal activity concentration (AC50) under setting [2] was 3.66 µM [falling, partial curve].
Take `COc1ccc(NC(=O)c2nc(C)n(-c3ccc([N+](=O)[O-])cc3)n2)cc1`: the cell number change worked out at 16.7%.
For the compound `COc1cc(CNc2ncc(-c3ccc(Br)cc3)n2C)cc(OC)c1O`, the cell number change was -0.587%. The AC50 under setting [2] was 6.51 µM [rising, single point].
Turning to `CCN1CCN(c2c(Cl)cccc2NC(=O)c2cccs2)CC1`, the cell number change is 8.65%. Also, the AC50 under setting [2] was 16.4 µM [falling, single point].
On to `CCOc1ccc(S(=O)(=O)NCCC(=O)NCCOc2ccccc2OC)cc1`, for which the cell number change was determined as 27.4%. Further, under setting [2], the AC50 was 7.31 µM [rising, partial curve].
As for `Cc1ccc(NC(=O)CC2SCCNC2=O)cc1Cl` (configuration not stated), the cell number change turned out to be 14.3%. The AC50 under setting [2] was 29.1 µM [rising, single point].
Consider `Cc1ccccc1NC(=O)c1ccno1`, for which the cell number change is 2.63%.
As for `CNC(=S)N/N=C(\C)c1ccc2c(c1)OCO2`, under setting [1], the AC50 was 3.66 µM [rising, single point].
On to `O=C(NCc1cccc(Cl)c1)c1cccnc1`, for which the cell number change turned out to be 10.5%.
`CCO[C@@H]1OC(C(=O)NCc2ccccc2)=C[C@H](C(C)(C)C)[C@H]1CCCO`: the cell number change stood at 1.43%. Also, the AC50 under setting [2] is 0.0164 µM [rising, full curve, poor fit].
For the compound `CN(CC(=O)Nc1ccc(F)c(F)c1F)C(=O)c1ccc(=O)[nH]c1`, the cell number change was 17.3%. Moreover, the AC50 under setting [2] was 0.58 µM [falling, single point].
In the case of `COc1ccc(C(C)=O)cc1COC(=O)CCCN1C(=O)c2ccccc2C1=O`, the cell number change was -30.3%. Besides, the AC50 under setting [1] is 32.6 µM [falling, single point]. For the same compound, the AC50 under setting [2] is 29.1 µM [falling, single point].
In the case of `Cn1nc(-c2ccc(N3CCCCC3)c(NC(=O)c3ccco3)c2)c2ccccc2c1=O`, the AC50 under setting [1] was 5.17 µM [rising, partial curve].
`COc1cccc(C(=O)NCc2ccc3c(c2)OCO3)c1`: the cell number change was 7.37%. Further, the AC50 under setting [2] is 23.1 µM [rising, single point].
Take `O=C(O)c1cccc(N2C(=O)c3cc([N+](=O)[O-])cc4cc([N+](=O)[O-])cc(c34)C2=O)c1`: the cell number change was -65.6%. The AC50 under setting [1] is 23.1 µM [falling, single point].
As to `CC(C)Cc1n[nH]c(=O)c2c1nnn2Cc1ccccc1F`, the cell number change stood at 31.9%. For the same compound, under setting [2], the AC50 was 29.1 µM [rising, single point].
For `COc1ccc(-c2nn(CC(=O)NCCc3ccccc3)c(=S)n2C)cc1`, the cell number change is 17.8%. Under setting [2], the AC50 was 3.66 µM [rising, full curve].
For the compound `COc1ccc(/C(O)=C2\C(=O)C(=O)N(c3cc(C)on3)C2c2cccc(OC)c2OC)cc1C` (configuration not stated), the cell number change came out at 6.66%. Further, the AC50 under setting [2] is 29.1 µM [falling, single point].
In the case of `Cc1ccc(-c2csc(N(CCCN3CCOCC3)C(=O)c3ccco3)n2)cc1`, under setting [1], the AC50 is 3.26 µM [rising, partial curve, poor fit].
With `Cc1nc(N(C)Cc2ccccc2)c2c(C)c(C)sc2n1`, the AC50 under setting [2] was 0.92 µM [falling, full curve, poor fit].
`CN(c1ccccc1)c1cc(=O)[nH]c(=O)[nH]1`: the cell number change was -24.7%. For the same compound, the AC50 under setting [1] was 0.731 µM [falling, full curve, poor fit]. Moreover, under setting [2], the AC50 is 0.731 µM [falling, full curve].
On to `O=C(CN1CCN(c2ccccc2O)CC1)NC(=O)NCc1ccccc1`, for which the cell number change is -0.778%.
